± gives the standard deviation of the averaged measurements. Values are relative to the signal before dosing, not to a vehicle control; the signal also falls without drug.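 The tumor cells are basal-like or mesenchymal-like triple-negative breast cancer lines cultured without fibroblasts. Reduced red signal indicates lost mitochondrial integrity, serving as a proxy for apoptotic death.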
Legend:
[1] = tested on: HCC1143; test: relative JC-1 red fluorescence (viability) vs pre-drug, monoculture (fraction); higher = more viable cancer cells; conditions: coculture fibroblast: none (monoculture)
Experimental: (§1)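 JC-1 labelled TNBC cells grown in monoculture (density kept equal with unlabelled cancer cells) in 384-well plates in FluoroBrite medium, treated with one of 42 anticancer drugs at 0.1, 1, 10 or 100 uM. JC-1 red fluorescence (mitochondrial integrity, surrogate of apoptotic death) was read by plate reader every 8 h for 72 h. Values are normalised to each well's pre-drug value, with background from alamethicin. The stock of one drug was tenfold lower, so its dose labels may be too high. Monoculture values are repeated alongside each fibroblast plate and are averaged here.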

[2] = tested on: MDAMB436; test: as above; conditions: coculture fibroblast: none (monoculture)
Experimental: as §1

O=c1[nH]cc(F)c(=O)[nH]1 [Fluorouracil]
relative JC-1 red fluorescence
Conditions | 8 h | 16 h | 24 h | 32 h | 40 h | 48 h | 56 h | 64 h | 72 h
[1], 0.1 µM | 0.8873 ± 0.0017 | 0.8019 ± 0.0025 | 0.7186 ± 0.0015 | 0.6639 ± 0.0018 | 0.603 ± 0.0061 | 0.559 ± 0.011 | 0.527 ± 0.01 | 0.502 ± 0.015 | 0.478 ± 0.0094
[1], 1 µM | 0.872 ± 0.012 | 0.782 ± 0.019 | 0.711 ± 0.022 | 0.644 ± 0.024 | 0.595 ± 0.029 | 0.55 ± 0.043 | 0.505 ± 0.05 | 0.479 ± 0.06 | 0.456 ± 0.061
[1], 10 µM | 0.896 ± 0.011 | 0.827 ± 0.013 | 0.771 ± 0.018 | 0.728 ± 0.014 | 0.686 ± 0.03 | 0.661 ± 0.04 | 0.642 ± 0.052 | 0.63 ± 0.056 | 0.619 ± 0.054
[1], 100 µM | 0.883 ± 0.032 | 0.784 ± 0.033 | 0.752 ± 0.053 | 0.716 ± 0.06 | 0.693 ± 0.076 | 0.672 ± 0.085 | 0.648 ± 0.091 | 0.644 ± 0.1 | 0.633 ± 0.11
[2], 0.1 µM | 0.861 ± 0.015 | 0.804 ± 0.028 | 0.78 ± 0.018 | 0.741 ± 0.018 | 0.72 ± 0.013 | 0.722 ± 0.014 | 0.735 ± 0.024 | 0.74 ± 0.027 | 0.743 ± 0.036
[2], 1 µM | 0.84192 ± 0.00059 | 0.7175 ± 0.005 | 0.7232 ± 0.0068 | 0.671 ± 0.013 | 0.661 ± 0.025 | 0.66 ± 0.03 | 0.652 ± 0.033 | 0.654 ± 0.039 | 0.66 ± 0.039
[2], 10 µM | 0.8864 ± 0.0071 | 0.818 ± 0.012 | 0.825 ± 0.032 | 0.782 ± 0.047 | 0.798 ± 0.063 | 0.797 ± 0.063 | 0.806 ± 0.067 | 0.81 ± 0.077 | 0.811 ± 0.076
[2], 100 µM | 0.873 ± 0.00013 | 0.7326 ± 0.0049 | 0.7518 ± 0.0066 | 0.6939 ± 0.0033 | 0.6723 ± 0.0021 | 0.65623 ± 0.00036 | 0.6455 ± 0.0028 | 0.64751 ± 0.00045 | 0.6522 ± 0.0055

N#Cc1ccc(C(c2ccc(C#N)cc2)n2cncn2)cc1 [Letrozole]
relative JC-1 red fluorescence
Conditions | 8 h | 16 h | 24 h | 32 h | 40 h | 48 h | 56 h | 64 h | 72 h
[1], 0.1 µM | 0.884 ± 0.014 | 0.764 ± 0.02 | 0.6839 ± 0.0056 | 0.627 ± 0.011 | 0.571 ± 0.018 | 0.531 ± 0.021 | 0.501 ± 0.025 | 0.484 ± 0.031 | 0.471 ± 0.036
[1], 1 µM | 0.8769 ± 0.0044 | 0.7819 ± 0.0015 | 0.7241 ± 0.0026 | 0.6906 ± 0.0052 | 0.653 ± 0.013 | 0.6305 ± 0.0047 | 0.6147 ± 0.0026 | 0.604 ± 0.004 | 0.5963 ± 0.0014
[1], 10 µM | 0.8849 ± 0.005 | 0.795 ± 0.016 | 0.73 ± 0.0095 | 0.6791 ± 0.0067 | 0.631 ± 0.02 | 0.596 ± 0.02 | 0.569 ± 0.029 | 0.546 ± 0.031 | 0.525 ± 0.034
[1], 100 µM | 0.89808 ± 0.00083 | 0.8246 ± 0.0023 | 0.767 ± 0.0092 | 0.711 ± 0.014 | 0.678 ± 0.023 | 0.647 ± 0.019 | 0.617 ± 0.019 | 0.596 ± 0.019 | 0.583 ± 0.015
[2], 0.1 µM | 0.875 ± 0.031 | 0.714 ± 0.038 | 0.723 ± 0.056 | 0.681 ± 0.063 | 0.659 ± 0.079 | 0.651 ± 0.09 | 0.655 ± 0.096 | 0.658 ± 0.1 | 0.666 ± 0.1
[2], 1 µM | 0.841 ± 0.021 | 0.749 ± 0.026 | 0.741 ± 0.054 | 0.698 ± 0.064 | 0.693 ± 0.078 | 0.69 ± 0.089 | 0.679 ± 0.092 | 0.679 ± 0.1 | 0.684 ± 0.11
[2], 10 µM | 0.901 ± 0.023 | 0.819 ± 0.0095 | 0.85 ± 0.026 | 0.825 ± 0.035 | 0.83 ± 0.037 | 0.841 ± 0.048 | 0.855 ± 0.05 | 0.857 ± 0.058 | 0.88 ± 0.066
[2], 100 µM | 0.884 ± 0.0092 | 0.805 ± 0.016 | 0.792 ± 0.027 | 0.738 ± 0.034 | 0.711 ± 0.04 | 0.687 ± 0.043 | 0.667 ± 0.045 | 0.648 ± 0.05 | 0.64 ± 0.055

CS(=O)(=O)CCNCc1ccc(-c2ccc3ncnc(Nc4ccc(OCc5cccc(F)c5)c(Cl)c4)c3c2)o1 [Lapatinib]
relative JC-1 red fluorescence
Conditions | 8 h | 16 h | 24 h | 32 h | 40 h | 48 h | 56 h | 64 h | 72 h
[1], 0.1 µM | 0.884 ± 0.012 | 0.803 ± 0.012 | 0.726 ± 0.025 | 0.66 ± 0.031 | 0.6 ± 0.035 | 0.547 ± 0.049 | 0.509 ± 0.051 | 0.486 ± 0.056 | 0.469 ± 0.057
[1], 1 µM | 0.886 ± 0.0057 | 0.8 ± 0.022 | 0.75 ± 0.04 | 0.69 ± 0.035 | 0.645 ± 0.041 | 0.607 ± 0.037 | 0.583 ± 0.042 | 0.569 ± 0.049 | 0.549 ± 0.049
[1], 10 µM | 0.951 ± 0.027 | 0.87 ± 0.049 | 0.791 ± 0.047 | 0.755 ± 0.072 | 0.751 ± 0.11 | 0.758 ± 0.14 | 0.734 ± 0.13 | 0.72 ± 0.12 | 0.721 ± 0.12
[1], 100 µM | 0.88 ± 0.015 | 0.78 ± 0.015 | 0.708 ± 0.018 | 0.643 ± 0.028 | 0.599 ± 0.034 | 0.557 ± 0.032 | 0.529 ± 0.045 | 0.509 ± 0.043 | 0.494 ± 0.041
[2], 0.1 µM | 0.8719 ± 0.0068 | 0.8139 ± 0.0054 | 0.7868 ± 0.0057 | 0.723 ± 0.013 | 0.703 ± 0.022 | 0.698 ± 0.028 | 0.691 ± 0.022 | 0.686 ± 0.037 | 0.68 ± 0.035
[2], 1 µM | 0.8905 ± 0.0049 | 0.81 ± 0.025 | 0.781 ± 0.037 | 0.715 ± 0.036 | 0.693 ± 0.045 | 0.671 ± 0.036 | 0.646 ± 0.046 | 0.633 ± 0.042 | 0.623 ± 0.049
[2], 10 µM | 0.855 ± 0.038 | 0.766 ± 0.039 | 0.756 ± 0.046 | 0.74 ± 0.035 | 0.762 ± 0.03 | 0.772 ± 0.016 | 0.775 ± 0.016 | 0.79 ± 0.026 | 0.793 ± 0.019
[2], 100 µM | 0.88809 ± 2.6e-05 | 0.757 ± 0.012 | 0.776 ± 0.02 | 0.701 ± 0.027 | 0.683 ± 0.038 | 0.665 ± 0.046 | 0.65 ± 0.049 | 0.641 ± 0.053 | 0.628 ± 0.057

CC(=O)O[C@H]1C(=O)[C@@]2(C)[C@H]([C@H](OC(=O)c3ccccc3)[C@]3(O)C[C@H](OC(=O)[C@H](O)[C@@H](NC(=O)c4ccccc4)c4ccccc4)C(C)=C1C3(C)C)[C@]1(OC(C)=O)CO[C@@H]1C[C@@H]2O [Paclitaxel]
relative JC-1 red fluorescence
Conditions | 8 h | 16 h | 24 h | 32 h | 40 h | 48 h | 56 h | 64 h | 72 h
[1], 0.1 µM | 0.911 ± 0.011 | 0.807 ± 0.014 | 0.7367 ± 0.003 | 0.6521 ± 0.0043 | 0.602 ± 0.014 | 0.581 ± 0.023 | 0.567 ± 0.015 | 0.56 ± 0.011 | 0.5517 ± 0.0055
[1], 1 µM | 0.893 ± 0.011 | 0.79 ± 0.018 | 0.698 ± 0.01 | 0.625 ± 0.012 | 0.5361 ± 0.0039 | 0.4904 ± 0.004 | 0.455 ± 0.00046 | 0.434 ± 0.008 | 0.432 ± 0.012
[1], 10 µM | 0.916 ± 0.02 | 0.824 ± 0.023 | 0.739 ± 0.028 | 0.658 ± 0.023 | 0.612 ± 0.031 | 0.581 ± 0.031 | 0.556 ± 0.034 | 0.538 ± 0.043 | 0.532 ± 0.046
[2], 0.1 µM | 0.8503 ± 0.006 | 0.791 ± 0.017 | 0.793 ± 0.03 | 0.751 ± 0.036 | 0.78 ± 0.036 | 0.79 ± 0.043 | 0.8 ± 0.044 | 0.808 ± 0.046 | 0.818 ± 0.048
[2], 1 µM | 0.876 ± 0.012 | 0.762 ± 0.0095 | 0.787 ± 0.012 | 0.739 ± 0.028 | 0.717 ± 0.033 | 0.706 ± 0.023 | 0.699 ± 0.028 | 0.699 ± 0.035 | 0.696 ± 0.035
[2], 10 µM | 0.9017 ± 0.0026 | 0.84697 ± 0.00021 | 0.854 ± 0.012 | 0.802 ± 0.017 | 0.82 ± 0.03 | 0.812 ± 0.037 | 0.813 ± 0.042 | 0.818 ± 0.044 | 0.825 ± 0.041
